# These are yes or no findings as the source states them, for the method shown. Binding seen in cells or lysates may run through a third protein. A yes stands for co-enrichment or nearness to the bait. Other partners may have been found. Tags and fused reporters may be left off the sequences shown.
# Protein sequences, listed by entry. Tags and fused reporters are not part of them.
# UniProt O22467: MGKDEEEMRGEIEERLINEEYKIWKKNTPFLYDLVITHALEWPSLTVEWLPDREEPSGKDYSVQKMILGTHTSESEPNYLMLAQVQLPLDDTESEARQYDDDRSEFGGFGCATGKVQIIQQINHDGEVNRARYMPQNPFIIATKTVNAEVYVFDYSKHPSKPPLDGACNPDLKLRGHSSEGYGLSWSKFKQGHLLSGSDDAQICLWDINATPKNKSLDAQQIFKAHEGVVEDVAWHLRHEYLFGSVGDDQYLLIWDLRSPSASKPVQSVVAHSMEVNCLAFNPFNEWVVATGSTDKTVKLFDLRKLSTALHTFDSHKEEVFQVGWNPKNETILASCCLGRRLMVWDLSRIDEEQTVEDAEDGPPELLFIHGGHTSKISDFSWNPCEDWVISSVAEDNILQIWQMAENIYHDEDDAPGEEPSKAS
# Target: T1, GFP-CLF (CURLY LEAF fused to GFP) (Arabidopsis) (UniProt P93831)
# T1 sequence: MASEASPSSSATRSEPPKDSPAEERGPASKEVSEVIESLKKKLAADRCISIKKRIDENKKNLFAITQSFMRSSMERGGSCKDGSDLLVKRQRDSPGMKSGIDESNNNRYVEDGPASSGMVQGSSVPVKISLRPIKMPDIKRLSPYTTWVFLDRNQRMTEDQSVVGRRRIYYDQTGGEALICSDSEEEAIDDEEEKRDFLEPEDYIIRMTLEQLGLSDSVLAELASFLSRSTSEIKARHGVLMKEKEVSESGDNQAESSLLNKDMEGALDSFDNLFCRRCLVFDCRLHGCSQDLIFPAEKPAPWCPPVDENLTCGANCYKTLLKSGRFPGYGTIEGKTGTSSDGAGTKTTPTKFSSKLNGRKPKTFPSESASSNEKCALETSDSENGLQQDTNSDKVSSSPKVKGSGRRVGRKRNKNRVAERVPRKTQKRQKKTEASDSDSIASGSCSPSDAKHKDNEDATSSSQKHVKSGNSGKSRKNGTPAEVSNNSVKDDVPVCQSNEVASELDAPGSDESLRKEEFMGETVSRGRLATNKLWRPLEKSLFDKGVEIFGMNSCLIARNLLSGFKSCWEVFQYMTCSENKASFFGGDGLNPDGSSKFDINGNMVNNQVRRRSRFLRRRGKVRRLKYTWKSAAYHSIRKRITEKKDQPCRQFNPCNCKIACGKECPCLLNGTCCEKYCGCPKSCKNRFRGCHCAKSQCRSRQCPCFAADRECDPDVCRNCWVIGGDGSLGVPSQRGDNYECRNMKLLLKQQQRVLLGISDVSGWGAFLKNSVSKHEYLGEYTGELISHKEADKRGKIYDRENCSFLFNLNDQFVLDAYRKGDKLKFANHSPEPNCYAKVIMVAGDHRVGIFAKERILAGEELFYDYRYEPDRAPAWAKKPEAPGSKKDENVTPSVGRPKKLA
# Assay: affinity purification with mass spectrometry; GFP-tagged bait immunoprecipitated from extracts of transgenic Arabidopsis plants (pALP1::ALP1-GFP, 35S::ALP1-GFP, 35S::GFP-CLF, 35S::GFP control); co-purifying proteins identified by mass spectrometry (IP-MS); three independent replicates
substance,measurement,value
MSI1 (from UniProt O22467 1-424),binding,binds

# From PMC4671723
